Assay results from patent US20230073781A1, “Systemic administration of peptides for the treatment of spinal cord injury and/or for remyelination” (AXOLTIS PHARMA, priority 2019, published 2023).
Values joined by “and” are separate entries in the source; they are usually repeats but may differ in a detail not shown here. Identical values can stand only once. Not every detail of the peptide structures is certain; ends, links or a residue may be inferred. Marks after values point to notes of the source that are not given here. Where a SMILES comes first, the peptide text is derived from it.

Experiments:
Format in all cases: in vivo, mouse
[1] = test system: mice with focal lesion of the corpus callosum (lysolecithin); experiment: MRI lesion volume after lysolecithin focal lesion of the corpus callosum; conditions: 5 mg/kg i.p. every other day from D2
[2] = test system: mice after T8 dorsal hemisection (spinal cord injury); experiment: Rotarod test after T8 dorsal hemisection, experiment 2
[3] = test system: mice after T8 dorsal hemisection (spinal cord injury); experiment: Open field BMS after T8 dorsal hemisection, experiment 2
Olig2-positive cells = experiment: Olig2 immunostaining after lysolecithin injection; conditions: 5 mg/kg i.p., D7
[4] = Body weight after T8 dorsal hemisection, experiment 2; conditions: experiment 2, data not shown
[5] = 4 mg/kg i.p. twice a week from 4 h post-injury, D 2
[6] = 4 mg/kg i.p. twice a week from 4 h post-injury, D −1
[7] = 8 mg/kg i.p. twice a week from 4 h post-injury, D 2
[8] = 8 mg/kg i.p. twice a week from 4 h post-injury, D −1
[9] = 16 mg/kg i.p. twice a week from 4 h post-injury, D 2
[10] = 16 mg/kg i.p. twice a week from 4 h post-injury, D −1
[11] = 4 mg/kg i.p. twice a week from 4 h post-injury, D 7
[12] = 4 mg/kg i.p. twice a week from 4 h post-injury, D 14
[13] = 4 mg/kg i.p. twice a week from 4 h post-injury, D 21
[14] = 4 mg/kg i.p. twice a week from 4 h post-injury, D 28
[15] = 4 mg/kg i.p. twice a week from 4 h post-injury, D 35
[16] = 4 mg/kg i.p. twice a week from 4 h post-injury, D 42
[17] = 4 mg/kg i.p. twice a week from 4 h post-injury, D 49
[18] = 4 mg/kg i.p. twice a week from 4 h post-injury, D 56
[19] = 8 mg/kg i.p. twice a week from 4 h post-injury, D 7
[20] = 8 mg/kg i.p. twice a week from 4 h post-injury, D 14
[21] = 8 mg/kg i.p. twice a week from 4 h post-injury, D 21
[22] = 8 mg/kg i.p. twice a week from 4 h post-injury, D 28
[23] = 8 mg/kg i.p. twice a week from 4 h post-injury, D 35
[24] = 8 mg/kg i.p. twice a week from 4 h post-injury, D 42
[25] = 8 mg/kg i.p. twice a week from 4 h post-injury, D 49
[26] = 8 mg/kg i.p. twice a week from 4 h post-injury, D 56
[27] = 16 mg/kg i.p. twice a week from 4 h post-injury, D 7
[28] = 16 mg/kg i.p. twice a week from 4 h post-injury, D 14
[29] = 16 mg/kg i.p. twice a week from 4 h post-injury, D 21
[30] = 16 mg/kg i.p. twice a week from 4 h post-injury, D 28
[31] = 16 mg/kg i.p. twice a week from 4 h post-injury, D 35
[32] = 16 mg/kg i.p. twice a week from 4 h post-injury, D 42
[33] = 16 mg/kg i.p. twice a week from 4 h post-injury, D 49
[34] = 16 mg/kg i.p. twice a week from 4 h post-injury, D 56

N=C(N)NCCC[C@H](NC(=O)[C@H](CO)NC(=O)[C@H](CS)NC(=O)[C@H](CO)NC(=O)[C@H](CO)NC(=O)[C@H](Cc1c[nH]c2ccccc12)NC(=O)CNC(=O)[C@H](CO)NC(=O)[C@@H](N)Cc1c[nH]c2ccccc12)C(=O)N[C@@H](CO)C(=O)N[C@@H](CS)C(=O)NCC(=O)O [NX210, W-S-G-W-S-S-C-S-R-S-C-G] (H-WSGWSSCSRSCG-OH)
Lesion volume (MRI) ([1]; D 1 (before treatment initiation)): 0.775 mm^3
Lesion volume (MRI) ([1]; D 3): 0.829 mm^3
Lesion volume (MRI) ([1]; D 7): 0.75 mm^3 and 0.746 mm^3
Lesion volume (MRI) ([1]; D 14): 0.635 mm^3
Lesion volume (MRI) ([1]; D 21): 0.521 mm^3
Rotarod Time [2, 5]: 19.30 s
Rotarod Time ([2]; 4 mg/kg i.p. twice a week from 4 h post-injury, D 8): 35.56 s
Rotarod Time ([2]; 4 mg/kg i.p. twice a week from 4 h post-injury, D 15): 38.30 s
Rotarod Time ([2]; 4 mg/kg i.p. twice a week from 4 h post-injury, D 22): 30.78 s
Rotarod Time ([2]; 4 mg/kg i.p. twice a week from 4 h post-injury, D 29): 32.78 s
Rotarod Time ([2]; 4 mg/kg i.p. twice a week from 4 h post-injury, D 36): 33.37 s
Rotarod Time ([2]; 4 mg/kg i.p. twice a week from 4 h post-injury, D 43): 35.85 s
Rotarod Time ([2]; 4 mg/kg i.p. twice a week from 4 h post-injury, D 50): 42.81 s
Rotarod Time ([2]; 4 mg/kg i.p. twice a week from 4 h post-injury, D 57): 28.93 s
Rotarod Time [2, 6]: 93.89 s
Rotarod Time [2, 7]: 28.00 s
Rotarod Time ([2]; 8 mg/kg i.p. twice a week from 4 h post-injury, D 8): 53.90* s
Rotarod Time ([2]; 8 mg/kg i.p. twice a week from 4 h post-injury, D 15): 61.29*** s
Rotarod Time ([2]; 8 mg/kg i.p. twice a week from 4 h post-injury, D 22): 52.33** s
Rotarod Time ([2]; 8 mg/kg i.p. twice a week from 4 h post-injury, D 29): 54.29** s
Rotarod Time ([2]; 8 mg/kg i.p. twice a week from 4 h post-injury, D 36): 54.76** s
Rotarod Time ([2]; 8 mg/kg i.p. twice a week from 4 h post-injury, D 43): 55.90** s
Rotarod Time ([2]; 8 mg/kg i.p. twice a week from 4 h post-injury, D 50): 52.38** s
Rotarod Time ([2]; 8 mg/kg i.p. twice a week from 4 h post-injury, D 57): 49.71** s
Rotarod Time [2, 8]: 87.95 s
rotarod test compared to vehicle ([2]; 8 mg/kg i.p., from day 8 to day 57 post-injury): significantly increased the duration time on the rod
Rotarod Time [2, 9]: 28.42 s
Rotarod Time ([2]; 16 mg/kg i.p. twice a week from 4 h post-injury, D 8): 38.08 s
Rotarod Time ([2]; 16 mg/kg i.p. twice a week from 4 h post-injury, D 15): 47.08 s
Rotarod Time ([2]; 16 mg/kg i.p. twice a week from 4 h post-injury, D 22): 34.54 s
Rotarod Time ([2]; 16 mg/kg i.p. twice a week from 4 h post-injury, D 29): 42.12 s
Rotarod Time ([2]; 16 mg/kg i.p. twice a week from 4 h post-injury, D 36): 48.25 s
Rotarod Time ([2]; 16 mg/kg i.p. twice a week from 4 h post-injury, D 43): 40.42 s
Rotarod Time ([2]; 16 mg/kg i.p. twice a week from 4 h post-injury, D 50): 40.79 s
Rotarod Time ([2]; 16 mg/kg i.p. twice a week from 4 h post-injury, D 57): 38.29 s
Rotarod Time [2, 10]: 92.21 s
BMS score [3, 5]: 1.39
BMS subscore [3, 5]: 0.33
BMS score [3, 11]: 2.56
BMS subscore [3, 11]: 1.89
BMS ≥ 5 (percentage of mice with BMS score ≥5) [3, 11]: 22.2%
BMS score [3, 12]: 4.11
BMS subscore [3, 12]: 2.33
BMS ≥ 5 (percentage of mice with BMS score ≥5) [3, 12]: 55.6%
BMS score [3, 13]: 4.28
BMS subscore [3, 13]: 2.44
BMS ≥ 5 (percentage of mice with BMS score ≥5) [3, 13]: 55.6%
BMS score [3, 14]: 5.22*
BMS subscore [3, 14]: 4.00
BMS ≥ 5 (percentage of mice with BMS score ≥5) [3, 14]: 55.6%
BMS score [3, 15]: 4.61
BMS subscore [3, 15]: 3.00
BMS ≥ 5 (percentage of mice with BMS score ≥5) [3, 15]: 55.6%
BMS score [3, 16]: 4.50
BMS subscore [3, 16]: 2.56
BMS ≥ 5 (percentage of mice with BMS score ≥5) [3, 16]: 44.4%
BMS score [3, 17]: 4.50
BMS subscore [3, 17]: 2.67
BMS ≥ 5 (percentage of mice with BMS score ≥5) [3, 17]: 44.4%
BMS score [3, 18]: 4.67
BMS subscore [3, 18]: 3.00
BMS ≥ 5 (percentage of mice with BMS score ≥5) [3, 18]: 44% and 44.4%
BMS score [3, 6]: 9.00
BMS subscore [3, 6]: 11.00
BMS score [3, 7]: 3.50
BMS subscore [3, 7]: 2.14
BMS score [3, 19]: 5.07**
BMS subscore [3, 19]: 4.29
BMS ≥ 5 (percentage of mice with BMS score ≥5) [3, 19]: 57.1%
BMS score [3, 20]: 5.50**
BMS subscore [3, 20]: 4.86
BMS ≥ 5 (percentage of mice with BMS score ≥5) [3, 20]: 71.4%
BMS score [3, 21]: 5.57**
BMS subscore [3, 21]: 5.29*
BMS ≥ 5 (percentage of mice with BMS score ≥5) [3, 21]: 86% and 85.7%
BMS score [3, 22]: 5.86**
BMS subscore [3, 22]: 6.14**
BMS ≥ 5 (percentage of mice with BMS score ≥5) [3, 22]: 85.7%
BMS score [3, 23]: 5.93*
BMS subscore [3, 23]: 5.86**
BMS ≥ 5 (percentage of mice with BMS score ≥5) [3, 23]: 85.7%
BMS score [3, 24]: 6.14*
BMS subscore [3, 24]: 5.57*
BMS ≥ 5 (percentage of mice with BMS score ≥5) [3, 24]: 100.0%
BMS score [3, 25]: 6.29**
BMS subscore [3, 25]: 6.86**
BMS ≥ 5 (percentage of mice with BMS score ≥5) [3, 25]: 85.7%
BMS score [3, 26]: 6.29**
BMS subscore [3, 26]: 6.43**
BMS ≥ 5 (percentage of mice with BMS score ≥5) [3, 26]: 85.7%
BMS score [3, 8]: 8.57
BMS subscore [3, 8]: 10.43
BMS score [3, 9]: 2.31
BMS subscore [3, 9]: 0.13
BMS score [3, 27]: 4.13
BMS subscore [3, 27]: 3.75
BMS ≥ 5 (percentage of mice with BMS score ≥5) [3, 27]: 37.5%
BMS score [3, 28]: 4.63
BMS subscore [3, 28]: 3.75
BMS ≥ 5 (percentage of mice with BMS score ≥5) [3, 28]: 62.5%
BMS score [3, 29]: 5.44**
BMS subscore [3, 29]: 5.50*
BMS ≥ 5 (percentage of mice with BMS score ≥5) [3, 29]: 75.0%
BMS score [3, 30]: 5.56*
BMS subscore [3, 30]: 5.63*
BMS ≥ 5 (percentage of mice with BMS score ≥5) [3, 30]: 75.0%
BMS score [3, 31]: 5.38
BMS subscore [3, 31]: 5.25*
BMS ≥ 5 (percentage of mice with BMS score ≥5) [3, 31]: 75.0%
BMS score [3, 32]: 5.75*
BMS subscore [3, 32]: 5.50*
BMS ≥ 5 (percentage of mice with BMS score ≥5) [3, 32]: 75.0%
BMS score [3, 33]: 6.00**
BMS subscore [3, 33]: 5.38*
BMS ≥ 5 (percentage of mice with BMS score ≥5) [3, 33]: 75.0%
BMS score [3, 34]: 5.81*
BMS subscore [3, 34]: 5.63*
BMS ≥ 5 (percentage of mice with BMS score ≥5) [3, 34]: 75%
BMS score [3, 10]: 9.00
BMS subscore [3, 10]: 11.00
recovery in BMS open field test compared to vehicle-injected mice ([3]; 4, 8 and 16 mg/kg i.p., first injection 4 h post hemisection): significant increased recovery
Olig2 cell density (Olig2-positive cells; CC Contralateral): 8050.6 per mm^2
Olig2 cell density (Olig2-positive cells; CC Ipsilateral): 6426.8 per mm^2
Olig2 cell density (Olig2-positive cells; Lesion): 7699.9±2026.6 per mm^2 and 7699.9 per mm^2
body weight [4]: reached pre-injury values between day 20 and day 27
